Test results published in the supplement of paper PMC10727501.
The other results are listed elsewhere or left out. Single values are uncertain here, since repeats match poorly.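 Free-swimming zebrafish larvae were scored for O-bend response probability to dark flashes (naive: first five; training: remaining flashes of four 60-flash blocks; test: later 60-flash block) and for turning toward alternating leftward/rightward LED motion (OMR). Six treated larvae were compared with sixty 0.1% DMSO controls; |SSMD|≥2 defined a hit.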

Tested on: Danio rerio larvae (5 dpf, TLF)
Assay: Prob-Train (SSMD vs DMSO vehicle); higher = higher than vehicle (e.g. higher dark-flash O-bend response probability, or better optomotor performance)
Conditions: 10 µM; pre-incubation: 30-90 min

Row | SMILES | Prob-Train
1 | NC(=O)c1cccnc1 [Nicotinamide (Vitamin B3)] | -0.353
2 | O=C(CCc1ccc(O)cc1)c1c(O)cc(O)cc1O[C@@H]1O[C@H](CO)[C@@H](O)[C@H](O)[C@@H]1O [Phlorizin] | -0.142
3 | O=c1c(O)c(-c2cc(O)c(O)c(O)c2)oc2cc(O)cc(O)c12 [Myricetin] | 0.611
4 | C[N+](C)(C)CC(O)CC(=O)O.[Cl-] (racemic) [DL-Carnitine HCl] | 0.204
5 | Oc1ccc([C@H]2COc3cc(O)ccc3C2)cc1 [Equol] | 0.649
6 | N[C@@H]1CCCC[C@H]1N.O=C([O-])C(=O)[O-].[Pt+2] [Oxaliplatin] | -0.0145
7 | O=C(Oc1cc(S(=O)(=O)c2ccccc2)ccc1[N+](=O)[O-])c1ccc(Cl)cc1 | -1.2
8 | C=CCNC1=C2C[C@@H](C)C[C@H](OC)[C@H](O)[C@@H](C)/C=C(\C)[C@H](OC(N)=O)[C@@H](OC)/C=C\C=C(\C)C(=O)NC(=CC1=O)C2=O [17-AAG (Tanespimycin)] | -0.312
9 | CC1=C(/C=C/C(C)=C\C=C\C(C)=C/C(=O)O)C(C)(C)CCC1 [Isotretinoin] | 0.272
10 | Cc1ccc(F)c(NC(=O)Nc2ccc(-c3cccc4[nH]nc(N)c34)cc2)c1 [Linifanib (ABT-869)] | -0.0128
11 | COc1ccccc1OCC(O)CN1CCN(CC(=O)Nc2c(C)cccc2C)CC1 (stereo not drawn) [Ranolazine] | 0.0729
12 | O=C(Nc1ccc2c(=O)cc(-c3nnn[nH]3)oc2c1)c1ccc(OCCCCc2ccccc2)cc1 [Pranlukast] | 0.717
13 | CN(c1ncccc1CNc1nc(Nc2ccc3c(c2)CC(=O)N3)ncc1C(F)(F)F)S(C)(=O)=O | -0.162
14 | CC(C)[C@@H](C)/C=C/[C@@H](C)[C@@H]1CC[C@H]2C3=CC=C4C[C@@H](O)CC[C@]4(C)[C@@H]3CC[C@@]21C [Ergosterol] | 0.475
15 | CN(C)Cc1ccc(S(=O)(=O)n2ccc(/C=C/C(=O)NO)c2)cc1 [Resminostat] | 0.274
16 | Clc1ccc2c(c1)CCc1cccnc1C2=C1CCNCC1 [Desloratadine] | 0.339
17 | COc1cc(F)c(C(C)C)cc1-c1ccc(C(F)(F)F)cc1CN1C(=O)O[C@H](c2cc(C(F)(F)F)cc(C(F)(F)F)c2)[C@H]1C [Anacetrapib (MK-0859)] | 0.0588
18 | COc1ccc(C2C(=O)c3ccccc3C2=O)cc1 [Anisindione] | -0.187
19 | COc1ccc(/C=C/C(=O)Nc2ccccc2C(=O)O)cc1OC [Tranilast] | -0.775
20 | CC(C)(C)/[N+]([O-])=C/c1ccc(S(=O)(=O)[O-])cc1S(=O)(=O)[O-].[Na+].[Na+] | 0.602
21 | CC1(COc2ccc3c(c2)ncn3-c2ccc3cccc(N4CCC(N)CC4)c3n2)COC1 | -0.141
22 | Cl.Clc1ccc2nsnc2c1NC1=NCCN1 [Tizanidine HCl] | -0.459
23 | O=C1NC(=O)C(c2ccccc2)(c2ccccc2)N1 [Phenytoin] | -0.128
24 | CS(=O)(=O)O.O=C(Nc1cccc(Cl)c1)Nc1ncc(CCNc2ncnc3ccsc23)s1 [SNS-314 Mesylate] | -0.957
25 | N#CSc1cc(SC#N)c(N)nc1N | -0.881
26 | Cc1nc2n(c(=O)c1CCN1CCC(c3noc4cc(F)ccc34)CC1)CCC[C@H]2O [Paliperidone (Invega)] | -0.619
27 | Br.CCCC(CCC)C(=O)OC1C[C@H]2CC[C@@H](C1)[N+]2(C)C (stereo partly drawn) [Anisotropine Methylbromide] | 0.39
28 | COc1cc(Nc2nc3ccccc3nc2NS(=O)(=O)c2ccc(NC(=O)c3ccc(C)c(OC)c3)cc2)cc(OC)c1 | 0.394

A draw from above in order of molar mass, smallest number first.
Row | SMILES | Prob-Train
1 | NC(=O)c1cccnc1 [Nicotinamide (Vitamin B3)] | -0.353
23 | O=C1NC(=O)C(c2ccccc2)(c2ccccc2)N1 [Phenytoin] | -0.128
9 | CC1=C(/C=C/C(C)=C\C=C\C(C)=C/C(=O)O)C(C)(C)CCC1 [Isotretinoin] | 0.272
3 | O=c1c(O)c(-c2cc(O)c(O)c(O)c2)oc2cc(O)cc(O)c12 [Myricetin] | 0.611
26 | Cc1nc2n(c(=O)c1CCN1CCC(c3noc4cc(F)ccc34)CC1)CCC[C@H]2O [Paliperidone (Invega)] | -0.619
2 | O=C(CCc1ccc(O)cc1)c1c(O)cc(O)cc1O[C@@H]1O[C@H](CO)[C@@H](O)[C@H](O)[C@@H]1O [Phlorizin] | -0.142
21 | CC1(COc2ccc3c(c2)ncn3-c2ccc3cccc(N4CCC(N)CC4)c3n2)COC1 | -0.141
17 | COc1cc(F)c(C(C)C)cc1-c1ccc(C(F)(F)F)cc1CN1C(=O)O[C@H](c2cc(C(F)(F)F)cc(C(F)(F)F)c2)[C@H]1C [Anacetrapib (MK-0859)] | 0.0588
